Values from PubChem BioAssay AID504784 (Drosophila RNAi Screening Center, 2011)
The screen tested about 17,000 reagents; shown is an unselected part of those with a known target gene and a result. 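Each column is one replicate's B-score; the combined score over replicates was not deposited, so single values may mislead.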 Reagents against one gene are numbered here. Further read-outs or replicates are left out here. Reagent sequences are not shown.

Aim: 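Search for regulators of lipid droplet storage in oleate-fed fly cells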 (primary screen)
Cell system: Drosophila Kc167 embryonic cells
Reagent: long dsRNA against Drosophila genes, about 250 ng dsRNA per well
Duration: 4 days
Challenge: cells fed 400 µM oleic acid bound to BSA
Read-out: 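Cells imaged and segmented; ratio of lipid droplet area to nuclear area, log-transformed, then normalised as a B-score over the screen; higher means more stored lipid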
Scale: droplet/nuclear area B-score: higher = more stored lipid (overstorage)

After knock-down of CG15912 the results were droplet/nuclear area B-score, replicate 1 = -0.324.
Hsp67Bc (Heat shock gene 67Bc) showed droplet/nuclear area B-score, replicate 1 = 0.236.
Against CG10801, the entry reads droplet/nuclear area B-score, replicate 1 = -2.12.
For Ir7f (Ionotropic receptor 7f), the entry reads droplet/nuclear area B-score, replicate 1 = -0.034.
After knock-down of nuf (nuclear fallout) #1, the screen gave droplet/nuclear area B-score, replicate 1 = -1.81.
Depletion of nuf (nuclear fallout) #2 came out at: droplet/nuclear area B-score, replicate 1 = -1.35.
Against nuf (nuclear fallout) #3, the entry reads droplet/nuclear area B-score, replicate 1 = 0.366.
CdGAPr (Cd GTPase activating protein-related) gave droplet/nuclear area B-score, replicate 1 = -0.526.
Knock-down of CG4988 gave: droplet/nuclear area B-score, replicate 1 = -3.25.
CG9795 scored droplet/nuclear area B-score, replicate 1 = -1.11.
Rlb1 showed droplet/nuclear area B-score, replicate 1 = -1.4.
After knock-down of CR32028 (retired record), the screen gave droplet/nuclear area B-score, replicate 1 = -0.0126.
ftz-f1 (ftz transcription factor 1) gave droplet/nuclear area B-score, replicate 1 = 0.317.
With knock-down of NimB4 (Nimrod B4) the results were droplet/nuclear area B-score, replicate 1 = -0.0549.
Mco1 (Multicopper oxidase 1) gave droplet/nuclear area B-score, replicate 1 = -0.548.
With knock-down of l(1)G0004 (lethal (1) G0004), the screen gave droplet/nuclear area B-score, replicate 1 = 0.774.
Knock-down of Orai came out at: droplet/nuclear area B-score, replicate 1 = -0.296.
For CG6345, the values are droplet/nuclear area B-score, replicate 1 = 0.679.
After knock-down of CG6454, the screen gave droplet/nuclear area B-score, replicate 1 = -0.407.
abo (abnormal oocyte) gave droplet/nuclear area B-score, replicate 1 = 0.56.
With knock-down of CG13192, the record shows droplet/nuclear area B-score, replicate 1 = 0.686.
alt (aluminum tubes) scored droplet/nuclear area B-score, replicate 1 = -0.152.
For Set2 (SET domain containing 2), the entry reads droplet/nuclear area B-score, replicate 1 = 1.67.
scramb1 (scramblase 1) #1 showed droplet/nuclear area B-score, replicate 1 = -0.278.
For scramb1 (scramblase 1) #2, the values are droplet/nuclear area B-score, replicate 1 = -1.87.
scramb1 (scramblase 1) #3 showed droplet/nuclear area B-score, replicate 1 = -2.21.
Depletion of Hug (Hugin) resulted in: droplet/nuclear area B-score, replicate 1 = 0.0184.
After knock-down of CG14229 #1 the results were droplet/nuclear area B-score, replicate 1 = 0.169.
Silencing of CG14229 #2 gave: droplet/nuclear area B-score, replicate 1 = 2.33.
With knock-down of CG14043, the screen gave droplet/nuclear area B-score, replicate 1 = -0.0166.
For hlk (hulk) #1, the values are droplet/nuclear area B-score, replicate 1 = 0.424.
After knock-down of hlk (hulk) #2, the record shows droplet/nuclear area B-score, replicate 1 = -1.01.
With knock-down of tw (twisted), the screen gave droplet/nuclear area B-score, replicate 1 = -0.407.
With knock-down of lush, the screen gave droplet/nuclear area B-score, replicate 1 = 0.0613.
For Charon, the values are droplet/nuclear area B-score, replicate 1 = -0.439.
Knock-down of Nprl2 (Nitrogen permease regulator-like 2) came out at: droplet/nuclear area B-score, replicate 1 = -0.307.
Silencing of Eaat1 (Excitatory amino acid transporter 1) gave: droplet/nuclear area B-score, replicate 1 = 0.338.
Depletion of skd (skuld) resulted in: droplet/nuclear area B-score, replicate 1 = 1.56.
For lectin-24A, the values are droplet/nuclear area B-score, replicate 1 = 0.544.
Silencing of sigmar (salivary glands marred) gave: droplet/nuclear area B-score, replicate 1 = -0.113.
